# At least one structure is not confirmed: it was looked up by name or label, or the drawing left a doubt. Some entries share one result that the patent states for a list of compounds.
# Legend:
# PAO1 biofilm [1] = test: Crystal violet based static biofilm inhibition assay, DSHs in LB media (Examples 2 and 4); format: cell-based, Pseudomonas aeruginosa; settings: 160 μM, 24 h
# Procedure: The ability of DSHs was tested to inhibit Pseudomonas aeruginosa adhesion, biofilm and to disperse pre-formed biofilm. To quantify the amount of PAO1/EGFP attached on the surface of micro titer plates with or without the synthesized DSHs, fluorescence emitted by green fluorescent proteins (GFP) was quantified (see supporting info for details). Crystal violet (CV) based static biofilm assay (see supporting info) was used to screen the anti-biofilm potencies of all synthesized agents. Both surface attached (SA) (FIG. 17) and total (SA+air-liquid interface) biofilm of P. aeruginosa was quantified. […] CV assays were also used to quantify the amount of P. aeruginosa biofilm remaining after dispersion experiments (FIG. 19). Initially, all agents were screen for anti-biofilm activities (both inhibition and dispersion) at 160 μM. […] All reported biofilm inhibition results are an average of 4 identical wells.
# The effect that DSHs have on the adhesion of PAO1-EGFP on polystyrene surface (microtiter plate) was also examined. PAO1-EGFP is a P. aeruginosa strain that constitutively expresses green fluorescent protein. In the adhesion assays, PAO1-EGFP was grown in microtiter plate for 24-hours in LB-media with (160 μM) or without DSHs. After 24-hours, the fluorescent signal obtained from surface adhered PAO1-EGFP was measured. Percent reduction in fluorescence was calculated by comparing fluorescent signal from PAO1-EGFP grown in LB-media with the signal from wells that had DSHs (FIG. 29A). To study the effect of DSHs on biofilm formation, Pseudomonas aeruginosa (PAO1) was grown in LB-media with (160 μM) or without DSHs at 37° C. under static conditions within wells of microtiter plates. After 24 hours, the surface attached biofilms adhering to the bottom of the wells were stained with crystal-violet dye and the biofilm was quantified by measuring absorbance at 600 nm (OD600). […] Similar to inhibition, the surface attached biofilm after dispersion with DSHs was quantified with crystal-violet staining and absorbance measurement at 600 nm, except that for dispersion, biofilm was first grown for 1 day in just LB-media without any DSHs after which DSHs were added and plates were incubated for additional 24 hours followed by quantification (FIG. 29B).
# Crystal violet (CV) based-biofilm inhibition assay. Inhibitory effect of all synthesized disaccharide hydrocarbons on biofilm formation of Pseudomonas aeruginosa (wild type PAO1) was determined by static biofilm inhibition assay using crystal violet staining. Overnight culture of PAO1 were sub cultured in LB media to OD600 of 0.01 and further the OD600 was allowed to reach ˜0.1. The bacterial sub-culture (200 μL) was then added into the wells of a microtiter plate. Predetermined concentrations of DSHs were added to respective wells containing sub culture by pipetting out fixed volume of sterile aqueous stock solutions (except DβL (7), SPOT, (15) and 2-ODαC (17), which were introduced as stocks prepared in H2O […] and EtOH (90:10) solutions). The microtiter plates were then wrapped in GLAD Press n′ Seal® (saran wrap) and further incubated under stationary conditions for 24 h at 37° C. After 24 h incubation, the culture media was discarded by pipetting carefully (without disrupting biofilm), the plate was then washed once with sterile water (200 μL) and allowed to dry at 37° C. for ˜30 mins. Microtiter plates were then stained with 0.1% aqueous solution of crystal violet (CV) (200 μL) at rt for ˜30 mins. Following this, the CV stain was removed and plate was again washed with sterile water (200 μL). Resultant CV stain in the well was then solubilized by adding 100 μL of 30% AcOH solution (in water) and mixing gently by pipetting.
# 1-day old PAO1 biofilm = test: Crystal violet assay for dispersion of 1-day old biofilm, DSHs (Examples 2 and 4); format: cell-based, Pseudomonas aeruginosa; settings: 160 μM, another 24 h
# Procedure: The effect that DSHs have on the adhesion of PAO1-EGFP on polystyrene surface (microtiter plate) was also examined. PAO1-EGFP is a P. aeruginosa strain that constitutively expresses green fluorescent protein. In the adhesion assays, PAO1-EGFP was grown in microtiter plate for 24-hours in LB-media with (160 μM) or without DSHs. After 24-hours, the fluorescent signal obtained from surface adhered PAO1-EGFP was measured. Percent reduction in fluorescence was calculated by comparing fluorescent signal from PAO1-EGFP grown in LB-media with the signal from wells that had DSHs (FIG. 29A). To study the effect of DSHs on biofilm formation, Pseudomonas aeruginosa (PAO1) was grown in LB-media with (160 μM) or without DSHs at 37° C. under static conditions within wells of microtiter plates. After 24 hours, the surface attached biofilms adhering to the bottom of the wells were stained with crystal-violet dye and the biofilm was quantified by measuring absorbance at 600 nm (OD600). The percent inhibition was calculated by comparing biofilm content of wells with no added agents (control) with the biofilm content from wells that had 160 μM of DSHs (FIG. 29A). Similar to inhibition, the surface attached biofilm after dispersion with DSHs was quantified with crystal-violet staining and absorbance measurement at 600 nm, except that for dispersion, biofilm was first grown for 1 day in just LB-media without any DSHs after which DSHs were added and plates were incubated for additional 24 hours followed by quantification (FIG. 29B).
# Crystal violet based assay for quantifying dispersion of 1-day old PAO1 biofilms were Plate for set up similar to inhibition assay with a slight modification. Wells of the micro-titer plate was inoculated with (200 μL) bacterial subculture (PAO1 subculture OD600 ˜0.1). The plates were incubated at 37° C. for 24 hours to allow biofilm formation. After 24 hours, bacterial culture was gently pipetted out and appropriate volume of DSH were added followed by addition of fresh LB medium (200 μL). The microtiter plate was incubated for an additional 24 hours at 37° C., following which, similar to work up of inhibition assay, culture was removed, wells were washed and CV-dye was introduced, followed by washing and destaining with 30% AcOH solution in water and quantification at 600 nm. Here again, only the surface attached biofilm dispersed was reported by comparing wells with DSHs with wells with no agent.
# Dose dependence assays for biofilm inhibition and dispersion. […] Both for biofilm inhibition and dispersion, predetermined volumes of DSH stocks were added to the assigned wells to span a concentration range between 0.5 μM-170 μM. Percent biofilm inhibition of dispersion was calculated by comparing to wells with no agent. […]
# PAO1 biofilm [2] = test: Crystal violet dye based biofilm inhibition assay, maltose derivatives (Example 1); format: cell-based, Pseudomonas aeruginosa; settings: 110 μM, 24 h, CV assay
# Procedure: A crystal violet (CV) assay was used to measure the amount of PAO1 biofilm formed after 24 h of bacterial inoculation. The fluorescence of green fluorescent proteins (GFP) expressed by PAO1-GFP was measured to directly quantify bacterial adhesion on polystyrene black 96 well plates with and without maltose derivatives after 2 h of bacterial inoculation. To evaluate the potential of maltose derivatives as both anti-biofilm and anti-adhesion agents, they were compared to a brominated furanone (BF8) known to inhibit biofilm formation, and two generic surfactants, sodium dodecyl sulfate (SDS) and tetra (ethylene glycol) monododecyl ether (C12EG4OH). […] P. aeruginosa strain PAO1-EGFP that constitutively producing green fluorescent protein was allowed to form biofilm on sterile steel coupons.
# Inhibitory effect of all the maltose hydrocarbons on P. aeruginosa biofilm formation was determined by crystal violet dye based biofilm inhibition assays. Overnight culture of wild type P. aeruginosa (PAO1) was sub cultured to an OD600 of 0.01 into the 95:5 M9+:Lb medium. 200 μL of the sub culture was aliquoted into the wells of 96 well polystyrene microtiter plate when it reached the OD600 of 0.1. Predetermined concentrations of the test compounds were then added to the respective wells containing sub culture. Sample plates were wrapped in GLAD Press n′ Seal® followed by incubation under stationary conditions for 24 h at 37° C. After incubation the media was discarded and the plates were washed with water and dried for 1 h at 37° C. The sample plates were stained with 200 μL of 0.1% aqueous solution of crystal violet (CV) and followed by incubation at ambient temperature for 20 min. […] Biofilm inhibition was quantified by measuring the OD600 of each well in which a negative control lane wherein no biofilm was formed served as a background and was subtracted out. The percent inhibition was calculated by the comparison of the OD600 for biofilm grown in the absence of compound (control) versus biofilm grown in the presence of compound under identical conditions. […]
# [3] = cited from earlier work
compound,measurement,setting,value
"CC(C)CCCC(C)CCCC(C)CCO[C@H]1O[C@H](CO)[C@@H](O[C@@H]2O[C@H](CO)[C@@H](O)[C@H](O)[C@H]2O)[C@H](O)[C@H]1O (stereo partly drawn) [SFαC (13), saturated farnesyl-α-cellobioside]",Inhibition of PAO1 biofilm formation (surface attached),PAO1 biofilm [1],more than 60%
same,Inhibition of PAO1 biofilm formation (surface attached),"PAO1 biofilm [1]; listed as 13: SFαC, 160 µM",up to 80%
same,Dispersion of 24-h old PAO1 biofilm,1-day old PAO1 biofilm,more than 60%
"CCCCCCCCCCC(CO[C@@H]1O[C@H](CO)[C@@H](O[C@H]2O[C@H](CO)[C@@H](O)[C@H](O)[C@H]2O)[C@H](O)[C@H]1O)Cc1ccc(C)cc1 (stereo partly drawn) [4-MBDβM, 4-methyl benzyl dodecyl β-maltoside]",Inhibition of PAO1 biofilm,PAO1 biofilm [2],more than 80%
benzyl dodecyl β-maltoside [BDβM],Inhibition of PAO1 biofilm,PAO1 biofilm [2],more than 80%
"CCCCCCCCCCCCO[C@@H]1O[C@H](CO)[C@@H](O[C@H]2O[C@H](CO)[C@@H](O)[C@H](O)[C@H]2O)[C@H](O)[C@H]1O [DβM (1), dodecyl-β-maltoside]",Critical micelle concentration (cmc),[3],170 µM
"CCCCCCCCCCCCO[C@@H]1O[C@H](CO)[C@@H](O[C@@H]2O[C@H](CO)[C@@H](O)[C@H](O)[C@H]2O)[C@H](O)[C@H]1O [DβC (4), dodecyl-β-cellobioside]",Inhibition of PAO1 biofilm formation (surface attached),PAO1 biofilm [1],more than 60%
same,Dispersion of 24-h old PAO1 biofilm,1-day old PAO1 biofilm,more than 60%
"CC(C)CCCC(C)CCCC(C)CCO[C@@H]1O[C@H](CO)[C@@H](O[C@H]2O[C@H](CO)[C@@H](O)[C@H](O)[C@H]2O)[C@H](O)[C@H]1O (stereo partly drawn) [SFβM (14), saturated farnesyl-β-maltoside]",Inhibition of PAO1 biofilm formation (surface attached),PAO1 biofilm [1],more than 60%
same,Dispersion of 24-h old PAO1 biofilm,1-day old PAO1 biofilm,more than 60%
"CCCCCCCCC(CO[C@@H]1O[C@H](CO)[C@@H](O[C@H]2O[C@H](CO)[C@@H](O)[C@H](O)[C@H]2O)[C@H](O)[C@H]1O)Cc1ccc(C(C)(C)C)cc1 (stereo partly drawn) [4-tBuBDeβM, 4-tertiary butyl benzyl decyl β-maltoside]",Inhibition of PAO1 biofilm,PAO1 biofilm [2],more than 80%
"CC(C)CCCC(C)CCCC(C)CCO[C@@H]1O[C@H](CO)[C@@H](O[C@@H]2O[C@H](CO)[C@@H](O)[C@H](O)[C@H]2O)[C@H](O)[C@H]1O (stereo partly drawn) [SFβC (12), saturated famesyl-β-cellobioside]",Inhibition of PAO1 biofilm formation (surface attached),PAO1 biofilm [1],more than 60%
same,Inhibition of PAO1 biofilm formation (surface attached),"PAO1 biofilm [1]; listed as 12: SFβC, 160 µM",up to 80%
same,Dispersion of 24-h old PAO1 biofilm,1-day old PAO1 biofilm,more than 60%
